At least one structure is not confirmed: it was looked up by name or label, or the drawing left a doubt.
Test system: AQP3
Test: Labelling of aquaporins 3 (AQP3) on sections of treated human skin explants (immunohistochemistry)
Settings: text description

C[C@@H]1C[C@H]2[C@@H]3CCC4=CC(=O)C=C[C@]4(C)[C@@]3(F)[C@@H](O)C[C@]2(C)[C@@]1(O)C(=O)CO [Dexamethasone, dexamethasone]
Labelling of Aquaporin-3, clarity of the labelling on the membranes (in words) (D1): quite clear
Labelling of Aquaporin-3 in the basal layers (in words) (D1): moderately displayed
Labelling of Aquaporin-3 in the last cell layer under the stratum corneum (in words) (D1): moderately present
Labelling of Aquaporin-3 on the basal pole of the basal keratinocytes (in words) (D1): very little displayed
Labelling of AQP-3, clarity of the labelling on the membranes (in words) (D4): very clear
Labelling of AQP-3 in the basal layers (in words) (D4): very clearly displayed
Labelling of AQP-3 in the last cell layer under the stratum corneum (in words) (D4): slightly present
Labelling of AQP-3 in the upper epidermal layers (in words) (D4): clearly displayed
Labelling of AQP-3 on the basal pole of the basal keratinocytes (in words) (D4): very little displayed
